# Laboratory results reported in patent US20210223237A1, “COMPOSITIONS AND METHODS FOR STUDYING DRUG METABOLISM” (Boehringer Ingelheim International GmbH, priority 2020, published 2021).
# What was measured:
# [1] = in vitro; details: human, microsomes
# [2] = in vitro; details: human, microsomes; remark: listed apart in the source
# [3] = Microsomal binding (fu,mic) using HLM-beads; details: compound 1.0 μM, (SD)
# [4] = Microsomal binding (fu,mic) using rapid equilibrium dialysis (RED); details: compound 1.0 μM, (SD)
structure (smiles),measurement,setting,value
"CN1C(=O)CN=C(c2ccccc2)c2cc(Cl)ccc21 [Diazepam, diazepam]","fraction unbound at 5 min, 1 μM",[1],1
same,"fraction unbound at 6 h, 1 μM",[2],0.77
same,"fu,mic",[3]; HLM 0.50 mg/ml,0.82 (0.07)
same,"fu,mic",[3]; HLM 1.0 mg/ml,0.66 (0.03)
same,"fu,mic",[4]; HLM 1.0 mg/ml,0.64 (0.02)
same,"fu,mic",[4]; HLM […],0.96 (0.01)
